Assay results from PMC6549159.
These are yes or no findings as the source states them, for the method shown. In cells and extracts the contact can be indirect. Here binding means that the protein was enriched with, or labelled near, the bait; the list need not be complete.

Protein sequences, listed by entry. Tags and fused reporters are not part of them.
UniProt O08808: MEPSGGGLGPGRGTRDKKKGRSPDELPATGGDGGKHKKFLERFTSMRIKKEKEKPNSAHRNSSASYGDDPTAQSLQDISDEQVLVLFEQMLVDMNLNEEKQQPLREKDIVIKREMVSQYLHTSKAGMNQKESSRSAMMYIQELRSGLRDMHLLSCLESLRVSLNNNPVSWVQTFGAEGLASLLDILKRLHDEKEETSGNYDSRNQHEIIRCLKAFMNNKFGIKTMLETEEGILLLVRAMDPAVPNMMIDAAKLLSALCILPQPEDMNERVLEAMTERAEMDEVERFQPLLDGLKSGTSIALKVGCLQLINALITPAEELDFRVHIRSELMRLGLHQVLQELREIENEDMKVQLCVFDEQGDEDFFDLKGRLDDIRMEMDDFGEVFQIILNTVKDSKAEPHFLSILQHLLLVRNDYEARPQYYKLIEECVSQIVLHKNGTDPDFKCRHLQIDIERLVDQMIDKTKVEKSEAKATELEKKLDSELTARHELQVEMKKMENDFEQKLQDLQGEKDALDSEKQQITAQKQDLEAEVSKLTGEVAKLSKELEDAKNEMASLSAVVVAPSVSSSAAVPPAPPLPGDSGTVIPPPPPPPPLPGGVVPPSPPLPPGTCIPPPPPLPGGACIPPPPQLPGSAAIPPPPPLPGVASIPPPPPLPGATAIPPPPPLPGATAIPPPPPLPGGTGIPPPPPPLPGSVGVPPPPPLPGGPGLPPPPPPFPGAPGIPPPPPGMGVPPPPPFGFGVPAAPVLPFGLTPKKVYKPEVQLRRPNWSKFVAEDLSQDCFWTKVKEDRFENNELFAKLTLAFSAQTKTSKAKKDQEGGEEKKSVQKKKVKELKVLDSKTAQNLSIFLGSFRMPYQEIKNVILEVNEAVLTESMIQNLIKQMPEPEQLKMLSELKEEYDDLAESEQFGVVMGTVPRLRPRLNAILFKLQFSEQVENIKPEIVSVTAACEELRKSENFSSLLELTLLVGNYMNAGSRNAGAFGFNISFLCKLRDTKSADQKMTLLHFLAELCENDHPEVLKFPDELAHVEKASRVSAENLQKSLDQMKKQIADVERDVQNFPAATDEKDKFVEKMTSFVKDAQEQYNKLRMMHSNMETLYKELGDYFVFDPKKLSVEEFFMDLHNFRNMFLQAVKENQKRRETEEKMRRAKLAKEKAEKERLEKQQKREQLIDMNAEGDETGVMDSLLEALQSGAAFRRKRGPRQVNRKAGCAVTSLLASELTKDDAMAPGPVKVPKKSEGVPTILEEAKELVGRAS
UniProt O35129: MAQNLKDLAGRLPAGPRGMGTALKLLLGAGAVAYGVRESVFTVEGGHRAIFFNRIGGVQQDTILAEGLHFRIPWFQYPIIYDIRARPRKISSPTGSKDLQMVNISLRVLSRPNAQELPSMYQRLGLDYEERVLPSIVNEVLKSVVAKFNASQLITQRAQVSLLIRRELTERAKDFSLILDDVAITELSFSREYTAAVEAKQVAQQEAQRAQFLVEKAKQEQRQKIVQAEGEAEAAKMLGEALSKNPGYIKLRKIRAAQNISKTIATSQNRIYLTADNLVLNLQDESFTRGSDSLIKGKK
UniProt P18760: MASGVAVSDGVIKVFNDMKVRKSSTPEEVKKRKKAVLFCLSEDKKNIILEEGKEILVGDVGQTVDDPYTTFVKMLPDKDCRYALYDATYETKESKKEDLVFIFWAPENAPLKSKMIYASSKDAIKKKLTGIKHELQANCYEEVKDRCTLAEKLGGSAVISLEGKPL

Biological target: mammalian Diaphanous1 (mDia1), endogenous (mouse (endogenous in C2C12)) (UniProt O08808)
Experiment: affinity purification with mass spectrometry; IP of endogenous mDia1 from C2C12 myoblasts (GM) and myotubes (DM 72 h), LC-MS/MS; LFQ ratio against IgG of 2 or greater in three biological replicates

Substance | binding
Prohibitin2 (Phb2), endogenous (from UniProt O35129 1-299) | binds
cofilin1, endogenous (from UniProt P18760 1-166) | binds
